PubChem BioAssay (EPA / NIEHS)
Where “and” joins values, the source holds several entries; their conditions need not be identical. Identical values can stand only once. Inconclusive results, whose numbers are uncertain, are shown with a selection of clear calls. Potencies beside an inconclusive call are fits to weak or partial responses and may not hold up. Calls of active or inactive are those of the source. How the source made its calls: active means hit-call score of the fitted dose curve at least 0.9, where 1 is the maximum; inconclusive means response in the unintended direction; inactive means score below 0.9.

Test: TOX21_p53_BLA_p4_viability: Viability Assessment in the Tox21 HCT-116 p53 Agonism Beta-lactamase Assay, Phase 4 (AID 2283597);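 further: hits lower the luminescence signal meaning cytotoxicity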
In short: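 ATP content by CellTiter-Glo luminescence, 30 min RT, read after the beta-lactamase ratio step. Cells: HCT116, 4000/well, compound added after 5 h, exposure 16 h at 37C. Signal loss = reduced viability.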

**Q.** For CCCCCCOC(C)=O, which AC50 is on record?
**A.** The AC50 was active: 24.9 µM.

**Q.** Which outcome does the source give for COc1cccc(OC)c1C(=O)O here?
**A.** The outcome was “inactive”.

**Q.** Which AC50 does the source give for C=C(C)C(=O)OCC1CCCO1 (stereo not drawn) here?
**A.** The AC50 was inconclusive: 46.1 µM.

**Q.** For O=C(N[C@@H](Cc1ccccc1)[C@@H](O)C(=O)N1C[C@@H](O)[C@@H](O)C1)c1cc2cc(Cl)ccc2[nH]1, which AC50 is on record?
**A.** The AC50 was active: 71 µM.

**Q.** Which outcome does the source give for CCc1ncc(C)[nH]1 here?
**A.** The outcome was “inactive”.

**Q.** With CCCCCCCCCC(C)C=O (stereo not drawn) as the compound, how does the outcome read?
**A.** The outcome was “inactive”.

**Q.** Which outcome does the source give for O=C(Nc1ccccc1)c1cc([N+](=O)[O-])ccc1Cl here?
**A.** Its outcome is “inactive”.

**Q.** For CCCCCCCCOS(=O)(=O)O, which AC50 is on record?
**A.** The AC50 was inconclusive: 46.1 µM.

**Q.** Which outcome does the source give for O=C(O)CN(CCN(CC(=O)O)CC(=O)O)CCN(CC(=O)O)CC(=O)O here?
**A.** Its outcome is “inactive”.

**Q.** With COCCCOc1ccnc(CS(=O)c2nc3ccccc3[nH]2)c1C (stereo not drawn) as the compound, how does the outcome read?
**A.** The outcome was “inactive”.

**Q.** Which outcome does the source give for O=c1[nH]nc(-c2ccc([N+](=O)[O-])o2)o1 here?
**A.** The outcome was “inactive”.

**Q.** For NC(=O)c1cccnc1, which AC50 is on record?
**A.** The AC50 was inconclusive: 48.4 µM and inconclusive: 23 µM.

**Q.** Which AC50 does the source give for O=C1NC(=O)[C@@H]2CC=CC[C@H]12 here?
**A.** The AC50 was inconclusive: 46.1 µM.

**Q.** Which AC50 does the source give for CCN(CC)CC here?
**A.** Its AC50 is inconclusive: 48.1 µM.

**Q.** Which AC50 does the source give for NCC1CCCC(CN)C1 (stereo not drawn) here?
**A.** Its AC50 is inconclusive: 46.1 µM.

**Q.** With CCCC(C)=O as the compound, how does the outcome read?
**A.** The outcome was “inactive”.

**Q.** With CCN(Cc1c(F)cccc1Cl)c1c([N+](=O)[O-])cc(C(F)(F)F)cc1[N+](=O)[O-] as the compound, how does the AC50 read?
**A.** Its AC50 is active: 26.3 µM.

**Q.** Which AC50 does the source give for C=C[Si](OC(C)=O)(OC(C)=O)OC(C)=O here?
**A.** Its AC50 is inconclusive: 46.1 µM.
